Data: the supplement of paper PMC3682954
Several values for one entry are separate records, joined by “and”; a condition that tells them apart may be missing. Equal entries are not always repeated. Structures can show the parent of a compound that is named as a salt. ± gives the standard deviation of the averaged measurements. This is one part of the list. Most values come without repeats; read them as rough.

Test system: RAW 264.7
Assay: cell viability (MTT) relative to vehicle control; higher = more viable cells
Conditions: stimulus: HMGB1 5 ug/ml, 18 h
[1] = compound concentration: 1 ug/ml

SMILES | cell viability (compound concentration: 3 uM) | cell viability [1] [%]
CC(=O)NO | 101% | 
O=C1O[C@H](CO)[C@@H](O)[C@H](O)[C@H]1O | 111% | 
S=C(Nc1ccccc1)Nc1nccs1 [1-Phenyl-3-(2-thiazolyl)-2-thiourea] | 98.3% | 
CCCCCCCCCCC[C@@H](C[C@@H]1OC(=O)[C@H]1CCCCCC)OC(=O)[C@H](CC(C)C)NC=O | 101 ± 5.4% | 
COc1ccc(-c2ccc(=N)n(CCCC(=O)O)n2)cc1 | 107% | 
COc1ccc(-c2ccc(=N)n(CCCC(=O)O)n2)cc1 [Gabazine] | 107% | 
CO[C@H]1C[C@H](O[C@H]2[C@H](C)[C@@H](O[C@@H]3O[C@H](C)C[C@H](N(C)C)[C@H]3OC(C)=O)[C@@H](C)C[C@@]3(CO3)C(=O)[C@H](C)[C@@H](OC(C)=O)[C@@H](C)[C@@H](C)OC(=O)[C@@H]2C)O[C@@H](C)[C@@H]1OC(C)=O [Troleandomycin] | 106 ± 1.6% | 
Cc1cc(C(=O)NNCc2ccccc2)no1 [Isocarboxazid] | 124% | 
CC(C)(S)[C@@H](N)C(=O)O | 106% | 
CC(C)(S)[C@@H](N)C(=O)O [Penicillamine] | 109% | 
CSc1ccc(C(=O)c2[nH]c(=O)[nH]c2C)cc1 [Enoximone] | 102% | 
CCC(=O)OCC(=O)[C@@]1(OC(=O)CC)[C@H](C)CC2C3C([C@@H](O)C[C@@]21C)[C@@]1(C)C=CC(=O)C=C1C[C@H]3Cl (stereo partly specified) | 112% | 
C[N+](C)(C)CCOC(=O)CCC(=O)OCC[N+](C)(C)C [Succinylcholine chloride] | 110% | 
C[N+](C)(C)CCOC(=O)CCC(=O)OCC[N+](C)(C)C [Succinylcholine] | 92.9% | 
CCN1CCc2nc(N)oc2CC1 [B-HT 933 dihydrochloride] | 105% | 
CN(C)c1ccc(O)c2c1C[C@H]1C[C@H]3[C@H](N(C)C)C(O)=C(C(N)=O)C(=O)[C@@]3(O)C(O)=C1C2=O [Minocycline] | 95% | 
CN(C)c1ccc(O)c2c1C[C@H]1C[C@H]3[C@H](N(C)C)C(O)=C(C(N)=O)C(=O)[C@@]3(O)C(O)=C1C2=O | 107% | 
CN(C)c1ccc(O)c2c1C[C@H]1C[C@H]3[C@H](N(C)C)C(O)=C(C(N)=O)C(=O)[C@@]3(O)C(O)=C1C2=O [Minocycline hydrochloride] | 118 ± 10% | 
CC(Cc1ccc(O)c(O)c1)(NN)C(=O)O (stereo not drawn) [S-(-)-Carbidopa] | 103% | 
CCCCCCCCCCCCCCCCOP(=O)([O-])OCC[N+](C)(C)C | 122% | 
CCCCCCCCCCCCCCCCOP(=O)([O-])OCC[N+](C)(C)C [Miltefosine] | 116% | 
Cc1ccsc1/C=C/C1=NCCCN1C [Morantel tartrate] | 94.8% | 
Cc1ccsc1/C=C/C1=NCCCN1C | 103% | 
CNC(C)CCC=C(C)C (stereo unspecified) [Isometheptene mucate] | 82.8% | 
O=C(COc1ccc(Cl)cc1)N1CCN(Cc2ccc3c(c2)OCO3)CC1 | 112% | 
O=C(COc1ccc(Cl)cc1)N1CCN(Cc2ccc3c(c2)OCO3)CC1 [Fipexide hydrochloride] | 102% | 

Quoted at random: 3 records from the list, in no set order.
SMILES | cell viability (compound concentration: 3 uM) | cell viability [1] [%]
CSc1ccc(C(=O)c2[nH]c(=O)[nH]c2C)cc1 [Enoximone] | 102% | 
S=C(Nc1ccccc1)Nc1nccs1 [1-Phenyl-3-(2-thiazolyl)-2-thiourea] | 98.3% | 
CCCCCCCCCCCCCCCCOP(=O)([O-])OCC[N+](C)(C)C | 122% | 

Later entries

SMILES | cell viability (compound concentration: 3 uM) | cell viability [1] [%]
CN(Cc1cnc2nc(N)nc(N)c2n1)c1ccc(C(=O)N[C@@H](CCC(=O)O)C(=O)O)cc1 [Methotrexate hydrate] | 91.9% | 
CN(Cc1cnc2nc(N)nc(N)c2n1)c1ccc(C(=O)N[C@@H](CCC(=O)O)C(=O)O)cc1 | 94% | 
CN(Cc1cnc2nc(N)nc(N)c2n1)c1ccc(C(=O)N[C@@H](CCC(=O)O)C(=O)O)cc1 [Methotrexate] | 67.4% | 
CCN(CC)CCNc1ccc(CO)c2sc3ccccc3c(=O)c12 [Hycanthone] | 95.9% | 
CCN(CC)CCNc1ccc(CO)c2sc3ccccc3c(=O)c12 | 100 ± 20% | 
CCOc1ccc2nc3cc(N)ccc3c(N)c2c1 | 112% | 
O=c1c(O)c(-c2ccc(O)c(O)c2)oc2ccccc12 |  | 70.3
COc1cc(-c2oc3cc(O)ccc3c(=O)c2O)cc(OC)c1OC [Robinetin trimethyl ether] |  | 95.1
CCN(CC)CCOC(=O)C(c1ccccc1)c1ccccc1 [Adiphenine hydrochloride] | 98.7% | 
CCN(CC)CCOC(=O)C(c1ccccc1)c1ccccc1 | 102% | 
OC(CCCN1CCCCC1)(c1ccccc1)c1ccccc1 [Diphenidol hydrochloride] | 105% | 
CCOC(=O)c1ccc(N)cc1 [Benzocaine] | 102% | 
CCOC(=O)c1ccc(N)cc1 | 107% | 
C[C@H]1[C@H](C)CC[C@]2(C(=O)O)CC[C@]3(C)C(=CC[C@@H]4[C@@]5(C)C[C@@H](O)[C@H](O)[C@@](C)(CO)[C@@H]5CC[C@]43C)[C@H]12 [Asiatic acid] |  | 96.9
CC(C)(C)CC(C)(C)c1ccc(O)c(Cc2ccc(Cl)cc2Cl)c1 | 80.8% | 
CCCN(CCc1ccccc1)C1CCc2c(O)cccc2C1 (racemic) [(±)-PPHT hydrochloride] | 100% | 
COc1cc2c(CCNC(C)=O)c[nH]c2cc1Cl [6-Chloromelatonin] | 105% | 
Cc1cc2c(C(C)C)c(O)c(O)c(/C=N/n3c(=O)[nH][nH]c3=O)c2c(O)c1-c1c(C)cc2c(C(C)C)c(O)c(O)c(/C=N/n3c(=O)[nH][nH]c3=O)c2c1O |  | 111
Cc1ccc(S(=O)(=O)NC(=O)NN2CCCCCC2)cc1 | 102% | 
Cc1ccc(S(=O)(=O)NC(=O)NN2CCCCCC2)cc1 [Tolazamide] | 101 ± 18% | 
COc1cccc(OC)c1C(=O)N[C@@H]1C(=O)N2[C@@H]1SC(C)(C)[C@@H]2C(=O)O | 113% | 
C[C@]12CC[C@@H]3c4ccc(OS(=O)(=O)O)cc4CC[C@H]3[C@@H]1CCC2=O | 104% and 101% | 
C[C@]12CC[C@@H]3c4ccc(OS(=O)(=O)O)cc4CC[C@H]3[C@@H]1CCC2=O [Estropipate] | 106% | 
C=CCn1c(=O)c2c(nc(-c3ccc(S(=O)(=O)O)cc3)n2C)n(C)c1=O [1-Allyl-3,7-dimethyl-8-p-sulfophenylxanthine] | 115% | 
CO[C@H](C(=O)[C@@H](O)[C@@H](C)O)[C@@H]1Cc2cc3cc(O[C@H]4C[C@@H](O[C@@H]5C[C@@H](O)[C@H](O)[C@@H](C)O5)[C@H](O)[C@@H](C)O4)c(C)c(O)c3c(O)c2C(=O)[C@H]1O[C@H]1C[C@@H](O[C@@H]2C[C@@H](O)[C@@H](O[C@@H]3C[C@](C)(O)[C@H](O)[C@@H](C)O3)[C@@H](C)O2)[C@H](O)[C@@H](C)O1 [Plicamycin] | 67.3% | 
